Molecules are shown by their SMILES.

This test deals with patient with zoster distributed skin eruption (dermatoma T6) and severe pain. To be noted: human, in vivo.

Consider `CCN(CC)CC(=O)Nc1c(C)cccc1C` [lidocaine], for which the “relief of the pain” value was “no or poor relief of the pain”.

For the origin of these results see patent US9107925B2 (priority 2010, dated 2015).
